# The other results are listed elsewhere or left out. These are raw signals, not scaled to a control.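 Primary screen: polymyxin B was added at a level permeabilizing Salmonella outer membranes while sparing inner membranes. DMSO wells, both with and without polymyxin B, established maximum growth. Plate-to-plate variation meant each plate was ranked on its own, and the lowest-OD600 compounds were selected as hits.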
# System: Salmonella enterica serovar Typhimurium SL1344
# Experiment: bacterial growth OD600 after 18 h with compound and polymyxin B; higher = more bacterial growth (less inhibition)
# Details: 50 µM, Mueller-Hinton broth
compound,measurement,setting,value
O=C(NCc1ccco1)C1CC12CCN(Cc1cnc(-c3ccccc3)s1)CC2 (stereo unspecified),bacterial growth OD600,polymyxin B 0.75 µg/mL,1.03
CCOC(=O)N1CCN(Cc2nc(-c3ccc(OC)cc3OC)oc2C)CC1,bacterial growth OD600,polymyxin B 0.75 µg/mL,0.976
CC(C)c1nc(CNC(=O)c2cc(Cn3ccnc3C(C)C)[nH]n2)cs1,bacterial growth OD600,polymyxin B 1 µg/mL,0.92
CCn1ccnc1CN1CCC2(CCCN(Cc3cccc(C)c3)C2=O)C1 (stereo unspecified),bacterial growth OD600,polymyxin B 1 µg/mL,0.899
COCC1CCCN(C(=O)CCC2(Cc3ccc(OC)c4ccccc34)CCC(=O)N2)C1 (stereo unspecified),bacterial growth OD600,polymyxin B 0.75 µg/mL,0.839
COc1cc(CNCc2cccnc2N(C)C2CCCCC2)ccc1F,bacterial growth OD600,polymyxin B 1 µg/mL,0.904
COc1cc(F)ccc1CN1CCC(n2nccc2NC(=O)C(C)(C)C)CC1,bacterial growth OD600,polymyxin B 0.75 µg/mL,0.846
Cc1nc(N2CCCC(NCc3ccc(F)cc3F)CC2)nc2ccc(F)cc12 (stereo unspecified),bacterial growth OD600,polymyxin B 0.75 µg/mL,0.691
COc1cccc(C(=O)N2CCC3(CC2)c2ccccc2[C@@H](NC(=O)c2ccccn2)[C@@H]3OC)c1,bacterial growth OD600,polymyxin B 0.75 µg/mL,0.729
CCOc1ccc2nc(N3CCCN(Cc4cc(OC)c(OC)cc4OC)CC3)nc(C)c2c1,bacterial growth OD600,polymyxin B 0.75 µg/mL,0.902
COc1ccc(C2(CC(=O)N3CCN(c4ccccc4)C(=O)C3)CC(=O)N(CCC(C)C)C2=O)cc1 (stereo unspecified),bacterial growth OD600,polymyxin B 0.75 µg/mL,0.824
O=C(CCN1CCCCO1)NC1CCCN(Cc2ccccc2F)C1 (stereo unspecified),bacterial growth OD600,polymyxin B 1 µg/mL,0.905
COc1ccc(F)c(CN2CCCC3(CCN(C(=O)c4cccc(C)n4)C3)C2)c1 (stereo unspecified),bacterial growth OD600,polymyxin B 1 µg/mL,0.912
CCCc1ncc(CN(C)C2CCCN(CCCc3ccccc3)C2)cn1 (stereo unspecified),bacterial growth OD600,polymyxin B 1 µg/mL,0.993
NC(=O)C1CCN(c2ccc(-c3nc(CCc4ccccc4)no3)cn2)CC1,bacterial growth OD600,polymyxin B 1 µg/mL,0.793
CC(=O)NCC(=O)N(C)C1CCCN(Cc2ccccc2F)C1 (stereo unspecified),bacterial growth OD600,polymyxin B 1 µg/mL,0.953
c1ccc2c(c1)CC(NC1CSCCSC1)CO2 (stereo unspecified),bacterial growth OD600,polymyxin B 1 µg/mL,0.933
O=C(Nc1cccc(-c2ccc(F)cc2)c1)C1CCCN(C(=O)CC(F)(F)F)C1 (stereo unspecified),bacterial growth OD600,polymyxin B 1 µg/mL,0.461
COCC(C)NC(=O)c1csc2nc(-c3cccc(C(F)(F)F)c3)cn12 (stereo unspecified),bacterial growth OD600,polymyxin B 1 µg/mL,1.11
Cc1nc[nH]c1CNC1CC(=O)N(CCc2cccc(Cl)c2)C1 (stereo unspecified),bacterial growth OD600,polymyxin B 1 µg/mL,0.834
CCC1CN(C(=O)c2sccc2C)Cc2ccc(Cl)cc2O1 (stereo unspecified),bacterial growth OD600,polymyxin B 0.75 µg/mL,0.014
CC(C)CN1CCC(N2CCCC(C(=O)NCc3cccnc3)C2)CC1 (stereo unspecified),bacterial growth OD600,polymyxin B 1 µg/mL,1.36
COc1ccccc1OCC(=O)N1CCc2c(cnc(C)c2CNC(=O)c2ccccc2SC)C1,bacterial growth OD600,polymyxin B 0.75 µg/mL,0.785
CCCCNC(=O)N1CCCC(Cc2ccc(F)cc2F)(C(=O)OCC)C1 (stereo unspecified),bacterial growth OD600,polymyxin B 1 µg/mL,0.652
CCN(Cc1nccn1C)C(=O)c1ccc(N2CCC[C@H]2CO)nc1,bacterial growth OD600,polymyxin B 0.75 µg/mL,0.845
Cc1nc2ccccc2n1Cc1cc(C(=O)N2CCCCCCC2)n[nH]1,bacterial growth OD600,polymyxin B 1 µg/mL,0.992
COc1cccc(CNC(=O)CCC2CCCN(Cc3nc4ccccc4n3C)C2)c1 (stereo unspecified),bacterial growth OD600,polymyxin B 0.75 µg/mL,0.857
O=C(c1n[nH]c(=O)c2ccccc12)N1CCC2(CCCN(CC3CCCCC3)C2)C1 (stereo unspecified),bacterial growth OD600,polymyxin B 1 µg/mL,0.915
Cc1cccc(CN2CCC(n3nccc3NC(=O)C(C)(C)C)CC2)c1,bacterial growth OD600,polymyxin B 1 µg/mL,0.928
O=C(NCc1cn2c(n1)SCC2)c1cc(COc2ccccc2)[nH]n1,bacterial growth OD600,polymyxin B 1 µg/mL,0.836
OCCC1CN(Cc2ccc(-n3cccn3)cc2)CCN1Cc1ccccc1F (stereo unspecified),bacterial growth OD600,polymyxin B 1 µg/mL,0.799

# Exported tab-delimited: two of the compounds above
compound	measurement	setting	value
CC(C)c1nc(CNC(=O)c2cc(Cn3ccnc3C(C)C)[nH]n2)cs1	bacterial growth OD600	polymyxin B 1 µg/mL	0.92
CCn1ccnc1CN1CCC2(CCCN(Cc3cccc(C)c3)C2=O)C1 (stereo unspecified)	bacterial growth OD600	polymyxin B 1 µg/mL	0.899
